Our source for the binding values is article PMC5675994.

Sequences of proteins named here, by UniProt entry; tags and fusion partners are left off. A change or cut given only in a name is not applied to a line headed by its entry.
UniProt Q07540: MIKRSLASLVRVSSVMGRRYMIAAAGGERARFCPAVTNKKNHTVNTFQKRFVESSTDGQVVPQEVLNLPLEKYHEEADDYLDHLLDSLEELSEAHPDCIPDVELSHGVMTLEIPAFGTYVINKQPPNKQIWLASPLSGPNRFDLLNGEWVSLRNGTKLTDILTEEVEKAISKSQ
UniProt P32597: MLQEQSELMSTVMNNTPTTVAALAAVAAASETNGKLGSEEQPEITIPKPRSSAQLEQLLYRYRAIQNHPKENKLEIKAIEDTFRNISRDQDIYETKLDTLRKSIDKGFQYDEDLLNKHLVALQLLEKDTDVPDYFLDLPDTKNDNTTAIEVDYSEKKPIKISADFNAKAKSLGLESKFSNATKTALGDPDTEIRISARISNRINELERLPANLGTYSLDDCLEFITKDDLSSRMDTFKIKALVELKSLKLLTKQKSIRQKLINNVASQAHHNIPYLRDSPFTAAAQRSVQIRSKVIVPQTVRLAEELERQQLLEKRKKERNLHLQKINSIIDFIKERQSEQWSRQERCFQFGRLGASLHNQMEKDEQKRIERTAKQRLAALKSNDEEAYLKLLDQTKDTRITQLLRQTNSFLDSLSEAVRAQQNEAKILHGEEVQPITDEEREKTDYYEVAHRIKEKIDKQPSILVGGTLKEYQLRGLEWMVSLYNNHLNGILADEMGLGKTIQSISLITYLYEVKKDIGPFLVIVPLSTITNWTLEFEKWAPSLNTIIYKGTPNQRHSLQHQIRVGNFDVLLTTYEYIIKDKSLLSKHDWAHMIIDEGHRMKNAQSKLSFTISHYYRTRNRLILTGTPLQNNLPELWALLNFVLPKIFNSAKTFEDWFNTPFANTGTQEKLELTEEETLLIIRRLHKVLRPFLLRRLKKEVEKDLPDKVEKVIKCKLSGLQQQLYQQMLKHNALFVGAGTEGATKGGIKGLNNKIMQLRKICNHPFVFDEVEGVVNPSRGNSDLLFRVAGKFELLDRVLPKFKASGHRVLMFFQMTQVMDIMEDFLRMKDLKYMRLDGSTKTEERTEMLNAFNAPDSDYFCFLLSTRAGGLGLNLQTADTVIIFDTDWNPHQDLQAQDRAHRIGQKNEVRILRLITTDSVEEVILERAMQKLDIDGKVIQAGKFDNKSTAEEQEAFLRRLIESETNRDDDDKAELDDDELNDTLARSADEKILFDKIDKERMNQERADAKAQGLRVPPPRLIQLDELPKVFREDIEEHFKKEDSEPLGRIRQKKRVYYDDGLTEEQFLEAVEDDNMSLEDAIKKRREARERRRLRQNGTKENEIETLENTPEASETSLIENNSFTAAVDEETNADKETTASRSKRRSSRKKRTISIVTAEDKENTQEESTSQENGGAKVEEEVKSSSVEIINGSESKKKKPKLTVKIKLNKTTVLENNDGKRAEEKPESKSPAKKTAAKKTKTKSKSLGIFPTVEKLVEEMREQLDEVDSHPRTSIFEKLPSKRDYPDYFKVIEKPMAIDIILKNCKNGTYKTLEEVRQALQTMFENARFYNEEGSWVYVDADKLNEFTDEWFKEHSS
UniProt P25632: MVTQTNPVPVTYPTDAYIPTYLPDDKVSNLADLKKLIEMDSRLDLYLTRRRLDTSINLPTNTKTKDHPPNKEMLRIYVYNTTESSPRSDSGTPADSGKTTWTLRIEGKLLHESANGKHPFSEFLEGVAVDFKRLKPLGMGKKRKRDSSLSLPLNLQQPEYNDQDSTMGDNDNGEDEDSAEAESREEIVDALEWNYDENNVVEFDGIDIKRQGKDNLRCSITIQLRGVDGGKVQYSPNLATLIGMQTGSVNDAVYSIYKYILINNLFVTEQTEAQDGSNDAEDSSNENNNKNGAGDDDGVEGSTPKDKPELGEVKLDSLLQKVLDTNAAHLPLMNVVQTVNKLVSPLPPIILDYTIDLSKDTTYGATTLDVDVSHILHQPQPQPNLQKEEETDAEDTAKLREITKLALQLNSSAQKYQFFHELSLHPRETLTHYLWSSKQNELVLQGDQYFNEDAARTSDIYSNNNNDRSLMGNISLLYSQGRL
UniProt P43609: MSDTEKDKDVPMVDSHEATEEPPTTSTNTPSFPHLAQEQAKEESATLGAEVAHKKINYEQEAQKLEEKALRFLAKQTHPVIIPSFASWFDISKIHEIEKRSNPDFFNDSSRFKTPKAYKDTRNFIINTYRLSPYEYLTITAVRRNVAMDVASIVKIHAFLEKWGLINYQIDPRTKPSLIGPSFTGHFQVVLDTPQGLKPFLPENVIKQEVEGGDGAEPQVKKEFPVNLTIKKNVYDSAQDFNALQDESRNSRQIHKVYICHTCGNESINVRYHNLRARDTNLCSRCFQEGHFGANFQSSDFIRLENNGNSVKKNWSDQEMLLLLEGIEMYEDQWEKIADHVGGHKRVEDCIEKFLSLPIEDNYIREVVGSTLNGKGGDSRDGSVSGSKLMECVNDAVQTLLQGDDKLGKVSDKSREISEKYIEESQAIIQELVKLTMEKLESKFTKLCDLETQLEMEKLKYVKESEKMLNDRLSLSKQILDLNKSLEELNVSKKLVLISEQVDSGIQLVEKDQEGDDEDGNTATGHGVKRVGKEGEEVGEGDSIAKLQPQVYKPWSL
UniProt P11484: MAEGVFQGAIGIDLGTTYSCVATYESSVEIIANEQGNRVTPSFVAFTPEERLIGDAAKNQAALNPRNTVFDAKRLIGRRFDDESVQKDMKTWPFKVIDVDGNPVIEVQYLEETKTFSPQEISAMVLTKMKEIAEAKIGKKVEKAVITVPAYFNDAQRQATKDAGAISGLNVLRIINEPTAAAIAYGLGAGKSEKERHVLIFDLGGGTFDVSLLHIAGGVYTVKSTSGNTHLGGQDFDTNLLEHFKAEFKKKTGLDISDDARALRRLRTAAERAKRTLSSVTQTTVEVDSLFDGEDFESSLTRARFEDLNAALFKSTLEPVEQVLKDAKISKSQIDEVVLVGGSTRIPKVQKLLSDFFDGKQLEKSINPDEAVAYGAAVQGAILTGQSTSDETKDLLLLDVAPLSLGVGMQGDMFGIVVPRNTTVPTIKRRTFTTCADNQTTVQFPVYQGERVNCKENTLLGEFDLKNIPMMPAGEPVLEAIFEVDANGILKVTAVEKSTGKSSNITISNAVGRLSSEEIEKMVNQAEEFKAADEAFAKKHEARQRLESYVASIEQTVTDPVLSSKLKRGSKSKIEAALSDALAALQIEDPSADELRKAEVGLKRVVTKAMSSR

These are yes or no findings as the source states them, for the method shown. Binding seen in cells or lysates may run through a third protein. A yes stands for co-enrichment or nearness to the bait. Other partners may have been found. Sequences can lack the tags named with a protein.

The target of this test is T1, Nfs1-His6 (S. cerevisiae) (UniProt P25374).
T1 sequence: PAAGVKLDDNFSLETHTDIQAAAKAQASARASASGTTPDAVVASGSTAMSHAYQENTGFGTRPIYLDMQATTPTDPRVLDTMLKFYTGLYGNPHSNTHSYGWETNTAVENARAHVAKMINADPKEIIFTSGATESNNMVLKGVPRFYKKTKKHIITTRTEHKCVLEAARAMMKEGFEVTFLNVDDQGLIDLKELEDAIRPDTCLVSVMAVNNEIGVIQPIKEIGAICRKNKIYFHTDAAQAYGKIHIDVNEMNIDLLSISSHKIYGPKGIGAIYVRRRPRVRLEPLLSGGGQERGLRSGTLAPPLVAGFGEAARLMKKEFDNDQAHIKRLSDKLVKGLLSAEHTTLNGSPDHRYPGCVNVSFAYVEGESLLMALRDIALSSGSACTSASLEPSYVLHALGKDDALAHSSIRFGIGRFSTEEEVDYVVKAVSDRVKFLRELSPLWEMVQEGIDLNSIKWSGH
The test is described as follows: affinity purification with mass spectrometry; Nfs1-His6 held on Ni-NTA superflow agarose from sonicated, cleared lysate of isolated mitochondria of the Gal-Nfs1-His6 yeast strain; 50 mM TrisCl pH 7.5, 80 mM KCl, 10% glycerol, wash 40 mM imidazole, elution 400 mM imidazole; eluate analysed by LC-MS/MS.

In the case of “Frataxin homolog, mitochondrial;Frataxin homolog intermediate form (from UniProt Q07540)”, the binding result was “binds”.

With “Nuclear protein STH1/NPS1 (from UniProt P32597 1-1359)”, the binding entry was “binds”. Regarding “D-lactate dehydrogenase [cytochrome] 1, mitochondrial (S. cerevisiae)”, the binding entry was “binds”.

Regarding “Transposon Ty1-NL2 Gag-Pol polyprotein;Capsid protein (S. cerevisiae)”, the binding result is recorded as “binds”. In the case of “NAD-dependent malic enzyme, mitochondrial (S. cerevisiae)” it was “binds”; in that of “Protein RMD9-like, mitochondrial (S. cerevisiae)”, “binds”; in that of “Chromatin structure-remodeling complex protein RSC6 (from UniProt P25632 1-483)”, “binds”. With “Threonine dehydratase, mitochondrial (S. cerevisiae)”, the binding result is recorded as “binds”. “Chromatin structure-remodeling complex protein RSC8 (from UniProt P43609 1-557)”: the binding result was “binds”. “Heat shock protein SSB1 (from UniProt P11484 1-613)”: the binding result is recorded as “binds”.

B1: Glycerol-3-phosphate dehydrogenase [NAD(+)] 2, mitochondrial (protein, UniProt P41911 17-440)
chain: HPVLYTRRAYKILPSRSTFLRRSLLQTQLHSKMTAHTNIKQHKHCHEDHPIRRSDSAVSIVHLKRAPFKVTVIGSGNWGTTIAKVIAENTELHSHIFEPEVRMWVFDEKIGDENLTDIINTRHQNVKYLPNIDLPHNLVADPDLLHSIKGADILVFNIPHQFLPNIVKQLQGHVAPHVRAISCLKGFELGSKGVQLLSSYVTDELGIQCGALSGANLAPEVAKEHWSETTVAYQLPKDYQGDGKDVDHKILKLLFHRPYFHVNVIDDVAGISIAGALKNVVALACGFVEGMGWGNNASAAIQRLGLGEIIKFGRMFFPESKVETYYQESAGVADLITTCSGGRNVKVATYMAKTGKSALEAEKELLNGQSAQGIITCREVHEWLQTCELTQEFPLFEAVYQIVYNNVRMEDLPEMIEELDIDDE
As to B1, the binding entry is “binds”.

B2: Long-chain-fatty-acid--CoA ligase 1 (protein, UniProt P30624 1-700)
chain: MVAQYTVPVGKAANEHETAPRRNYQCREKPLVRPPNTKCSTVYEFVLECFQKNKNSNAMGWRDVKEIHEESKSVMKKVDGKETSVEKKWMYYELSHYHYNSFDQLTDIMHEIGRGLVKIGLKPNDDDKLHLYAATSHKWMKMFLGAQSQGIPVVTAYDTLGEKGLIHSLVQTGSKAIFTDNSLLPSLIKPVQAAQDVKYIIHFDSISSEDRRQSGKIYQSAHDAINRIKEVRPDIKTFSFDDILKLGKESCNEIDVHPPGKDDLCCIMYTSGSTGEPKGVVLKHSNVVAGVGGASLNVLKFVGNTDRVICFLPLAHIFELVFELLSFYWGACIGYATVKTLTSSSVRNCQGDLQEFKPTIMVGVAAVWETVRKGILNQIDNLPFLTKKIFWTAYNTKLNMQRLHIPGGGALGNLVFKKIRTATGGQLRYLLNGGSPISRDAQEFITNLICPMLIGYGLTETCASTTILDPANFELGVAGDLTGCVTVKLVDVEELGYFAKNNQGEVWITGANVTPEYYKNEEETSQALTSDGWFKTGDIGEWEANGHLKIIDRKKNLVKTMNGEYIALEKLESVYRSNEYVANICVYADQSKTKPVGIIVPNHAPLTKLAKKLGIMEQKDSSINIENYLEDAKLIKAVYSDLLKTGKDQGLVGIELLAGIVFFDGEWTPQNGFVTSAQKLKRKDILNAVKDKVDAVYSSS
As for B2, the binding result is listed as “binds”.

B3: Alcohol dehydrogenase 2 (protein, UniProt P00331 1-348)
chain: MSIPETQKAIIFYESNGKLEHKDIPVPKPKPNELLINVKYSGVCHTDLHAWHGDWPLPTKLPLVGGHEGAGVVVGMGENVKGWKIGDYAGIKWLNGSCMACEYCELGNESNCPHADLSGYTHDGSFQEYATADAVQAAHIPQGTDLAEVAPILCAGITVYKALKSANLRAGHWAAISGAAGGLGSLAVQYAKAMGYRVLGIDGGPGKEELFTSLGGEVFIDFTKEKDIVSAVVKATNGGAHGIINVSVSEAAIEASTRYCRANGTVVLVGLPAGAKCSSDVFNHVVKSISIVGSYVGNRADTREALDFFARGLVKSPIKVVGLSSLPEIYEKMEKGQIAGRYVVDTSK
Take B3: the binding entry was “binds”.

B4: External NADH-ubiquinone oxidoreductase 1, mitochondrial (protein, UniProt P40215 42-560)
chain: EDKKVILQKVAPTTGVVAKQSFFKRTGKFTLKALLYSALAGTAYVSYSLYREANPSTQVPQSDTFPNGSKRKTLVILGSGWGSVSLLKNLDTTLYNVVVVSPRNYFLFTPLLPSTPVGTIELKSIVEPVRTIARRSHGEVHYYEAEAYDVDPENKTIKVKSSAKNNDYDLDLKYDYLVVGVGAQPNTFGTPGVYEYSSFLKEISDAQEIRLKIMSSIEKAASLSPKDPERARLLSFVVVGGGPTGVEFAAELRDYVDQDLRKWMPELSKEIKVTLVEALPNILNMFDKYLVDYAQDLFKEEKIDLRLKTMVKKVDATTITAKTGDGDIENIPYGVLVWATGNAPREVSKNLMTKLEEQDSRRGLLIDNKLQLLGAKGSIFAIGDCTFHPGLFPTAQVAHQEGEYLAQYFKKAYKIDQLNWKMTHAKDDSEVARLKNQIVKTQSQIEDFKYNHKGALAYIGSDKAIADLAVGEAKYRLAGSFTFLFWKSAYLAMCLSFRNRVLVAMDWAKVYFLGRDSSI
On to B4, for which the binding entry is given as “binds”.

B5: ATP-dependent RNA helicase MSS116, mitochondrial (protein, UniProt P15424 27-664)
chain: NHITWAVSRRLYNDGNRDQRNFGRNQRNNNSNRYRNSRFNSRPRTRSREDDDEVHFDKTTFSKLIHVPKEDNSKEVTLDSLLEEGVLDKEIHKAITRMEFPGLTPVQQKTIKPILSSEDHDVIARAKTGTGKTFAFLIPIFQHLINTKFDSQYMVKAVIVAPTRDLALQIEAEVKKIHDMNYGLKKYACVSLVGGTDFRAAMNKMNKLRPNIVIATPGRLIDVLEKYSNKFFRFVDYKVLDEADRLLEIGFRDDLETISGILNEKNSKSADNIKTLLFSATLDDKVQKLANNIMNKKECLFLDTVDKNEPEAHERIDQSVVISEKFANSIFAAVEHIKKQIKERDSNYKAIIFAPTVKFTSFLCSILKNEFKKDLPILEFHGKITQNKRTSLVKRFKKDESGILVCTDVGARGMDFPNVHEVLQIGVPSELANYIHRIGRTARSGKEGSSVLFICKDELPFVRELEDAKNIVIAKQEKYEPSEEIKSEVLEAVTEEPEDISDIVISLISSYRSCIKEYRFSERRILPEIASTYGVLLNDPQLKIPVSRRFLDKLGLSRSPIGKAMFEIRDYSSRDGNNKSYDYDDDSEISFRGNKNYNNRSQNRDYDDEPFRRSNNNRRSFSRSNDKNNYSSRNSNIY
On to B5, for which the binding result is reported as “binds”.

B6: Elongation factor 3A (protein, UniProt P16521 1-1044)
chain: MSDSQQSIKVLEELFQKLSVATADNRHEIASEVASFLNGNIIEHDVPEHFFGELAKGIKDKKTAANAMQAVAHIANQSNLSPSVEPYIVQLVPAICTNAGNKDKEIQSVASETLISIVNAVNPVAIKALLPHLTNAIVETNKWQEKIAILAAISAMVDAAKDQVALRMPELIPVLSETMWDTKKEVKAAATAAMTKATETVDNKDIERFIPSLIQCIADPTEVPETVHLLGATTFVAEVTPATLSIMVPLLSRGLNERETGIKRKSAVIIDNMCKLVEDPQVIAPFLGKLLPGLKSNFATIADPEAREVTLRALKTLRRVGNVGEDDAIPEVSHAGDVSTTLQVVNELLKDETVAPRFKIVVEYIAAIGADLIDERIIDQQAWFTHITPYMTIFLHEKKAKDILDEFRKRAVDNIPVGPNFDDEEDEGEDLCNCEFSLAYGAKILLNKTQLRLKRARRYGICGPNGCGKSTLMRAIANGQVDGFPTQEECRTVYVEHDIDGTHSDTSVLDFVFESGVGTKEAIKDKLIEFGFTDEMIAMPISALSGGWKMKLALARAVLRNADILLLDEPTNHLDTVNVAWLVNYLNTCGITSITISHDSVFLDNVCEYIINYEGLKLRKYKGNFTEFVKKCPAAKAYEELSNTDLEFKFPEPGYLEGVKTKQKAIVKVTNMEFQYPGTSKPQITDINFQCSLSSRIAVIGPNGAGKSTLINVLTGELLPTSGEVYTHENCRIAYIKQHAFAHIESHLDKTPSEYIQWRFQTGEDRETMDRANRQINENDAEAMNKIFKIEGTPRRIAGIHSRRKFKNTYEYECSFLLGENIGMKSERWVPMMSVDNAWIPRGELVESHSKMVAEVDMKEALASGQFRPLTRKEIEEHCSMLGLDPEIVSHSRIRGLSGGQKVKLVLAAGTWQRPHLIVLDEPTNYLDRDSLGALSKALKEFEGGVIIITHSAEFTKNLTEEVWAVKDGRMTPSGHNWVSGQGAGPRIEKKEDEEDKFDAMGNKIAGGKKKKKLSSAELRKKKKERMKKKKELGDAYVSSDEEF
As to B6, the binding entry is on record as “binds”.

B7: Phosphatidylethanolamine N-methyltransferase (protein, UniProt P05374 1-869)
chain: MSSCKTTLSEMVGSVTKDRGTINVEARTRSSNVTFKPPVTHDMVRSLFDPTLKKSLLEKCIALAIISNFFICYWVFQRFGLQFTKYFFLVQYLFWRIAYNLGIGLVLHYQSHYETLTNCAKTHAIFSKIPQNKDANSNFSTNSNSFSEKFWNFIRKFCQYEIRSKMPKEYDLFAYPEEINVWLIFRQFVDLILMQDFVTYIIYVYLSIPYSWVQIFNWRSLLGVILILFNIWVKLDAHRVVKDYAWYWGDFFFLEESELIFDGVFNISPHPMYSIGYLGYYGLSLICNDYKVLLVSVFGHYSQFLFLKYVENPHIERTYGDGTDSDSQMNSRIDDLISKENYDYSRPLINMGLSFNNFNKLRFTDYFTIGTVAALMLGTIMNARFINLNYLFITVFVTKLVSWLFISTILYKQSQSKWFTRLFLENGYTQVYSYEQWQFIYNYYLVLTYTLMIIHTGLQIWSNFSNINNSQLIFGLILVALQTWCDKETRLAISDFGWFYGDFFLSNYISTRKLTSQGIYRYLNHPEAVLGVVGVWGTVLMTNFAVTNIILAVLWTLTNFILVKFIETPHVNKIYGKTKRVSGVGKTLLGLKPLRQVSDIVNRIENIIIKSLVDESKNSNGGAELLPKNYQDNKEWNILIQEAMDSVATRLSPYCELKIENEQVETNFVLPTPVTLNWKMPIELYNGDDWIGLYKVIDTRADREKTRVGSGGHWSATSKDSYMNHGLRHKESVTEIKATEKYVQGKVTFDTSLLYFENGIYEFRYHSGNSHKVLLISTPFEISLPVLNTTTPELFEKDLTEFLTKVNVLKDGKFRPLGNKFFGMDSLKQLIKNSIGVELSSEYMRRVNGDAHVISHRAWDIKQTLDSLA
As for B7, the binding result is “binds”.
